From PMC7795528 come the findings set out here.

Protein sequences, listed by entry. Tags and fused reporters are not part of them. Lines headed by an entry give the natural chain unless they say otherwise; changes in a name come on top. Residues count along the entry.
wild type RANKL (mRANKL-WT), recombinant GST fusion RANKL protein (O35235, residues 158-316): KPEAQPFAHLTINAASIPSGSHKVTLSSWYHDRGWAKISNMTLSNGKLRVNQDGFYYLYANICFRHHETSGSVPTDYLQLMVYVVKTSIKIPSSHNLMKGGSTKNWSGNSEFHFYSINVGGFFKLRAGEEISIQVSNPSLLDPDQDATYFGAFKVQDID

Experiment [1] addresses T1, leucine-rich repeat-containing G-protein-coupled receptor 4 (LGR4) (mouse (endogenous in BMMs)) (UniProt A2ARI4).
T1 sequence: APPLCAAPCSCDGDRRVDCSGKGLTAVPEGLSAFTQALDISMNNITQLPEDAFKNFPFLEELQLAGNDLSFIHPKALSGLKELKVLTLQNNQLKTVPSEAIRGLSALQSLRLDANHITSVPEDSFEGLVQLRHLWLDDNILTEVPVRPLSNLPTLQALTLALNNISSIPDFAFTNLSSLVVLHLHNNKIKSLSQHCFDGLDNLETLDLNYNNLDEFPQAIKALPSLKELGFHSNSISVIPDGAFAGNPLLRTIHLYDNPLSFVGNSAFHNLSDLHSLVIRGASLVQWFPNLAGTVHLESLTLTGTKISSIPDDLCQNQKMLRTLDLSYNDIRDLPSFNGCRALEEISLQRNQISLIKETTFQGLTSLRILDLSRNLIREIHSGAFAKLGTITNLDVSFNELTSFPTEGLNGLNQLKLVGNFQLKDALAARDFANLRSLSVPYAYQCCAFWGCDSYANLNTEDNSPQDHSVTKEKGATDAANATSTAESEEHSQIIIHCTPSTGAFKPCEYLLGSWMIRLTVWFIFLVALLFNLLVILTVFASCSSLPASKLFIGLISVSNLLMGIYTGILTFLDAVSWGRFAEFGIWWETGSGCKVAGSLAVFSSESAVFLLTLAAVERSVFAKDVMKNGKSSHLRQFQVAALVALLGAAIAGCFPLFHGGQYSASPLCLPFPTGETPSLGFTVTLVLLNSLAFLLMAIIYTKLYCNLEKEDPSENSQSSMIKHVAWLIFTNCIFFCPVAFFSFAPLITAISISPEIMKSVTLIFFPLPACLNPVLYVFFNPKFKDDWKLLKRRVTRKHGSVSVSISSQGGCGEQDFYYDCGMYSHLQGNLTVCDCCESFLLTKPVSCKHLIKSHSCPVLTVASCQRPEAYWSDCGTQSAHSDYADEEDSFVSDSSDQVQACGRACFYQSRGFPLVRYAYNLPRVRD
Put plainly: co-IP; BMM cells incubated with 500 ng/mL of mRANKL-WT or mRANKL-MT3 at 37 °C for 45 min, lysed; whole cell lysates precipitated with antibodies to RANK or LGR4 and protein A Sepharose, 2 h at room temperature; western blot; only the binder purified. A general note: Immunoblotting shows a protein as a band on a membrane.

The target in experiment [2] is T2, RANK (mouse (endogenous in BMMs)) (UniProt O35305).
T2 sequence: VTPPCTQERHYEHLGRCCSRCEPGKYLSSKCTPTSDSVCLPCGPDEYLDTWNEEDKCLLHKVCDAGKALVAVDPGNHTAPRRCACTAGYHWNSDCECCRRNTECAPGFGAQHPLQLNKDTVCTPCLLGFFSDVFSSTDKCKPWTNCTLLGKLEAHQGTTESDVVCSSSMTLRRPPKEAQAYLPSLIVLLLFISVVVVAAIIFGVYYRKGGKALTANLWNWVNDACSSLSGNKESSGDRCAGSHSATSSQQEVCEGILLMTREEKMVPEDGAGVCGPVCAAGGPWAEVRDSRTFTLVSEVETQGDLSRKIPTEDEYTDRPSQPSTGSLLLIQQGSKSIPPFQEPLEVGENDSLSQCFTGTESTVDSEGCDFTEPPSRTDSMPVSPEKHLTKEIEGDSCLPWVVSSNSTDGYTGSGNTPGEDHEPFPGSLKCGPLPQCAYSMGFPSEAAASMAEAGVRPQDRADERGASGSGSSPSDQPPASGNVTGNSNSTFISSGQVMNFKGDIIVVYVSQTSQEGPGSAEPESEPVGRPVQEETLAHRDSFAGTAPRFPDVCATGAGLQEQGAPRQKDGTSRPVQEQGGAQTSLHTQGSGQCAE
The description is as above.

Results are given in words; binding and its absence hold for the method and conditions named. Binding seen in cells or lysates may run through a third protein. Some binding calls cover weakened binding; strength is not graded here.

Regarding “mutant RANKL (mRANKL-MT), recombinant GST fusion RANKL protein with K180R, D189I, R190K, H223F, H224Y (from UniProt O35235 158-316) (ligand)”, the binding entry in experiment [1] is “binds”. Consider “wild type RANKL (mRANKL-WT), recombinant GST fusion RANKL protein (from UniProt O35235 158-316) (ligand)”, for which the binding result in experiment [2] and in experiment [1] was “binds” throughout.
